Data as given in article PMC12040169 (PLOS Biology, 2025).
Some of the results follow.

System: T1, CTL2-GFP (C. trachomatis L2/434/Bu, GFP-expressing)
T1 construct: L2/434/Bu, GFP-expressing
Design: species or system HeLa; Intracellular C. trachomatis growth in HeLa cells, bulk GFP fluorescence relative to DMSO
Settings: bulk GFP, single well; 28.5 h, 10 µM; inhibitor

Compound | % of control remaining [%]
Cc1ccc2c(c1)N(CC(N)=O)C(=O)CO2 [CBK270208] | 135.509
COC1C(O)C(CO)OC1n1cc(F)c(SC)nc1=O (stereo not shown) [CBK201267] | 146.291
COc1ccc(C)cc1C1(CNC(=O)C2CCC(N)C2)CCOCC1 (stereo not shown) [CBK304312C] | 120.657
CNC(=S)NCCc1c[nH]c2ccccc12 [CBK264853] | 114.561
Cc1noc(C)c1CC(=O)NCc1ccc(CN2CCCCC2)cc1 [CBK281422] | 121.672
CS(=O)(=O)N(CC(=O)O)c1cccc2ccccc12 [CBK262420] | 100
CC(NC(=O)N(Cc1cccc2ccccc12)C1CCC(N)CC1)c1cccc2ccccc12 (stereo not shown) [CBK000482C] | 54.6899
NC(CC(=O)O)c1ccc(OCc2ccccc2)cc1 (stereo not shown) [CBK286999] | 140.306
O=C1c2ccc(Oc3cccc(Oc4ccc5c(c4)C(=O)N(CCO)C5=O)c3)cc2C(=O)N1CCO [CBK261398] | 112.612
COCCOCCCN1CCC2(CC1)NC(=O)Cc1ccc(C)cc12 [CBK040222] | 98.3735
COc1ccccc1-c1nc(C2CCCN(C(=O)NCCc3cccs3)C2)n2ccccc12 (stereo not shown) [CBK047163] | 116.832
O=C(Nc1cccc(F)c1)C(c1ccccc1)N1CCOCC1 (stereo not shown) [CBK269191] | 123.09
OCCn1nc(C2CCCC2)nc1CCc1c[nH]c2ccccc12 [CBK307509] | 133.776
OCCNc1nc(Nc2ccc(Cl)cc2)nc(N2CCCCC2)n1 [CBK266638] | 161.095
O=C1NC(=O)C2(CCN(Cc3ccccc3)CC2)N1 [CBK005078] | 111.747
N#CCCNCC1COc2ccccc2O1 (stereo not shown) [CBK026615] | 117.328
CC(C)NCC(O)COC1CCC(C(C)(C)C)CC1 (stereo not shown) [CBK029007C] | 158.678
O=C1NC(N2CCCC2)=NOc2nnc(Cl)cc21 [CBK024856] | 131.246
O=S(=O)(Cc1ccc(Cl)cc1)Nc1cccc2[nH]ccc12 [CBK153531] | 68.5746
O=C(NC(C(=O)c1ccccc1)N1CCCCC1)c1ccccc1 (stereo not shown) [CBK261035] | 87.4932

Two records drawn at random from those above:
Compound | % of control remaining [%]
COc1ccc(C)cc1C1(CNC(=O)C2CCC(N)C2)CCOCC1 (stereo not shown) [CBK304312C] | 120.657
N#CCCNCC1COc2ccccc2O1 (stereo not shown) [CBK026615] | 117.328

(continued)

Compound | % of control remaining [%]
CC(C)(CNC(=O)Cn1cnc2ccccc21)N1CCCCC1 [CBK281879] | 135.158
COc1ccc(CCN2C(=O)CC(C(=O)O)S/C2=N\c2ccc(Cl)cc2)cc1OC (stereo not shown) [CBK263286] | 107.884
COc1cc(/C=C(\C#N)c2nc3ccccc3n2C)cc([N+](=O)[O-])c1O [CBK263893] | 146.333
O=C(CC1SCCNC1=O)NCc1ccccc1 (stereo not shown) [CBK270202] | 93.0342
CC(=O)OC(COc1ccc(F)cc1)Cn1cnc2ccccc21 (stereo not shown) [CBK266162] | 131.507
CS(=O)(=O)N(CC(=O)N1CCN(C(c2ccccc2)c2ccccc2)CC1)c1cccc(F)c1 [CBK266330] | 155.836
CCc1nn2c(=O)cc(CN3C(=O)NC(C)(c4ccco4)C3=O)nc2s1 (stereo not shown) [CBK305880] | 109.519
COc1ccc(NS(=O)(=O)c2cccc(Cl)c2C)c(C(=O)NCc2ccccc2)c1 [CBK113953] | 141.337
O=C(Cn1c(=O)n(Cc2ccco2)c2ncccc21)N1CCCCC1 [CBK283862] | 140.53
CCOC(=O)c1c(NC(=O)c2nn3c(C(F)(F)F)cc(-c4cccs4)nc3c2Cl)sc2c1CCCC2 [CBK262539] | 115.507
COC(=O)c1c(NC(=O)c2ccncc2)sc2c1CCC2 [CBK262637] | 100
COc1cccc(C(=O)NNC(=O)c2ccc(F)cc2)c1 [CBK261705] | 108.759
COc1cc(CNC(C)(C)CO)c(Cl)cc1OC(C)C [CBK269542] | 128.128
CC1CCc2nc(NS(=O)(=O)c3ccccc3)sc2C1 (stereo not shown) [CBK026915] | 80.2617
O=C(NCc1ccccn1)c1ccccc1Nc1cccc(C(F)(F)F)c1 [CBK107252] | 116.737
O=C(Cn1cc(Br)ccc1=O)NC1CCN(Cc2ccccc2)CC1 [CBK305671] | 121.08
FC(F)(F)c1cc(-c2cc(Nc3ccc4[nH]ccc4c3)ncn2)cc(C(F)(F)F)c1 [CBK090855] | 106.563
O=C(NCCCN1CCc2ccccc2C1)C1CC1c1ccco1 (stereo not shown) [CBK305257] | 103.343
S=C(Nc1ccccc1)c1ccccc1 [CBK005397] | 104.24
CC(=O)Nc1cccc(-c2cnc(Nc3ccc(N4CCOCC4)cc3)c3nccn23)c1 [CBK091235] | 170.62
